PubChem BioAssay AID652243, Drosophila RNAi Screening Center – 2013

Purpose: 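Fly regulators of androgen-dependent reporter output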 (primary screen)
Cells: Drosophila S2R+ cells
Knock-down reagent: long dsRNA against Drosophila genes
Duration: 72 h (48 h, then 24 h hormone)
Conditions: synthetic androgen R1881 at 10 nM for 24 h
Read-out: 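Per-well raw luminescence of the androgen-driven firefly reporter and of the Renilla control, two replicates each, without normalisation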
Direction: firefly reporter light: higher = more light from androgen-responsive reporter; Renilla control light: higher = more constitutive control signal (cell number, transfection)
Rule for the call: 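Across duplicate plates, a knock-down whose log firefly/Renilla ratio shifted a set fold down or up from the GFP/LacZ control mean was a hit; the downward cut appears as both 1.5 and 3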
Meaning of the calls: active = hit: reporter lowered or raised; inactive = no hit
The deposit covers about 24,000 reagents; shown is a random part of those with a known target gene and a result. Over the whole deposit, 246 (1%) got an active call. 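Plates not normalised; calls are printed but the firefly/Renilla ratio behind them is not deposited; fold cut for lowering reported inconsistently.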 Raw values are not corrected between plates. Entries without a mark were called inactive. Not given: the amount of reagent.

gene | amplicon | firefly reporter light, replicate 1 | firefly reporter light, replicate 2 | Renilla control light, replicate 1 | Renilla control light, replicate 2
CG12320 | DRSC14498 | 95232 | 1.54e5 | 1.16e6 | 1.60e6
CG17362 | DRSC10267 | 2.79e5 | 1.63e5 | 1.63e6 | 1.11e6
CG2962 | DRSC18247 | 1.17e5 | 2.00e5 | 1.07e6 | 1.07e6
CG2962 | DRSC27023 | 3.43e5 | 3.31e5 | 8.30e5 | 5.93e5
Gyc88E | DRSC15547 | 2.27e5 | 2.49e5 | 1.42e6 | 1.51e6
unc-13 | DRSC17192 | 7.08e5 | 7.10e5 | 8.93e5 | 4.12e5
unc-13 | DRSC17193 | 8.88e5 | 5.60e5 | 1.20e6 | 4.77e5
unc-13 | DRSC17223 | 71846 | 1.18e5 | 4.37e5 | 5.40e5
Cpr11A | DRSC19861 | 4.31e5 | 5.09e5 | 3.59e6 | 3.79e6
Cpr11A | DRSC26786 | 3.25e5 | 2.79e5 | 4.14e5 | 3.54e5
lectin-24A | DRSC00604 | 1.28e5 | 1.53e5 | 7.08e5 | 9.18e5
RNaseP:RNA | DRSC22967 | 6.73e5 | 9.27e5 | 1.92e6 | 2.47e6
Tsen2 | DRSC01557 | 1.32e5 | 1.29e5 | 2.94e5 | 2.82e5
Tsen2 | DRSC27827 | 4.25e5 | 3.52e5 | 5.68e5 | 6.07e5
CG3588 | DRSC18473 | 5.45e5 | 7.02e5 | 3.87e6 | 3.44e6
CG3588 | DRSC24598 | 6.42e5 | 7.35e5 | 1.19e6 | 1.21e6
Aos1 | DRSC14113 | 65327 | 1.15e5 | 1.28e6 | 1.54e6
Aos1 | DRSC29634 | 5.01e5 | 5.31e5 | 8.46e5 | 8.46e5
ebo | DRSC18787 | 75356 | 52356 | 6.57e5 | 4.55e5
ebo | DRSC28174 | 3.89e5 | 3.26e5 | 1.81e6 | 1.37e6
Nup153 | DRSC19904 | 76510 (active) | 1.42e5 | 1.39e6 | 1.82e6
CG5550 | DRSC06943 | 56813 | 65370 | 7.66e5 | 7.66e5
CG5550 | DRSC29735 | 6.03e5 | 5.15e5 | 1.57e6 | 1.37e6
Chd3 | DRSC11114 | 1.12e5 | 1.66e5 | 2.31e6 | 2.12e6
Chd3 | DRSC23701 | 7.08e5 | 2.92e5 | 7.70e5 | 3.89e5
